For at least one compound, name, drawing or mass did not settle the structure. Where a SMILES comes first, the peptide text is derived from it.
Legend:
Type in all cases: cell-based
Conditions in all cases: final concentration 10 μmol/l
[1] = tested on: adrenal gland of an apoaequorin transgenic mouse; test: Intracellular calcium (aequorin luminescence) in adrenal gland pieces of apoaequorin transgenic mouse
Protocol: (§1) In order to evaluate physiological activities of the peptides prepared in Example 1, the prepared peptides were allowed to act upon organs excised from the living body, and changes in the concentration of an intracellular signal transduction substance in cells constituting the organs were measured.
(§2) In order to measure changes in the concentration of an intracellular signal transduction substance in cells constituting the organs, a transgenic mouse prepared by integrated an apoaequorin gene expression vector into a chromosome was used. Specifically, a female mouse derived from the transgenic mouse disclosed in Reference Example 4 as an individual number 98075-04-6 was used in the test. […]
(§3) Aequorin is a bioluminescent protein complex which is present in the umbrella region of luminescent Aequorea victoria. Aequorin is constituted from its protein moiety apoaequorin, its luminescence substrate coelent razin and molecular oxygen, and emits light by its binding with calcium ion. […]
(§4) Organs were prepared from offsprings borne from the female of individual number 98075-04-6 to examine the activities of the peptides produced in Example 1. […] Five hours after, various substances shown below dissolved in RPMI 1640 medium were added at 200 μl, and the luminescence was measured just after the addition at 1 second intervals using a luminometer AutoLumat LB953 (manufactured by BERTHOLD).

[2] = tested on: womb of an apoaequorin transgenic mouse; test: Intracellular calcium (aequorin luminescence) in womb pieces of apoaequorin transgenic mouse
Protocol: as §1, §2, §3, §4

[3] = tested on: blood vessel of an apoaequorin transgenic mouse; test: Intracellular calcium (aequorin luminescence) in blood vessel pieces of apoaequorin transgenic mouse
Protocol: as §1, §2, §3, §4

Measured: luminescence (intracellular calcium increase)

NC(N)=NCCC[C@H](NC(=O)[C@H](Cc1ccccc1)NC(=O)[C@@H]1CCCN1C(=O)[C@H](CO)NC(=O)[C@H](Cc1ccccc1)NC(=O)CNC(=O)[C@@H]1CCCN1C(=O)[C@@H]1CCCN1C(=O)[C@@H](N)CCCN=C(N)N)C(=O)O [bradykinin] (H-RPPGFSPFR-OH)
Strong luminescence: [1] | [2] | [3]

Source: patent publication US20040081972A1, “Novel physiologically active peptide and use thereof” (priority 2000, published 2004)
